In paper PMC12040169 (PLOS Biology, 2025):
Some of the results follow.

These molecules were tested on T1, CTL2-GFP (C. trachomatis L2/434/Bu, GFP-expressing). Details: bulk GFP, single well; 28.5 h, 10 µM; inhibitor.
T1 construct: L2/434/Bu, GFP-expressing
Parameters: species or system HeLa; Intracellular C. trachomatis growth in HeLa cells, bulk GFP fluorescence relative to DMSO

| Compound | % of control remaining |
| --- | --- |
| CC(C)c1cc(C(=O)N2CCNC(c3ccccc3)C2)nc2ncnn12 (stereo not drawn) [CBK306533] | 96.9602% |
| CC1CCN(S(=O)(=O)c2cc(S(=O)(=O)N3CCC(C)CC3)c3cccc4c3c2NC4=O)CC1 [CBK263716] | 102.514% |
| COc1ccc(C(=O)Nc2c(Cl)ccc3nsnc23)cc1 [CBK270252] | 131.21% |
| COc1ccccc1NC(=O)C(=O)NCc1cccnc1 [CBK287724] | 123.755% |
| CC(=O)c1ccc(NC(=O)CSc2nnc(-c3ccncc3)s2)cc1 [CBK269183] | 134.704% |
| COc1ccccc1CC(=O)NNC(=O)c1ccco1 [CBK262956] | 100% |
| CN(Cc1cnn(C)c1)C(=O)COCc1nc2cc(F)ccc2[nH]1 [CBK306687] | 93.7067% |
| Cn1cc(NC(=O)c2ccc(CN3CCCC3=O)cc2)cn1 [CBK306322] | 136.761% |
| CC(C)(C)OC(=O)N1CCN(Cc2ccc(N)c3ccccc23)CC1 [CBK084530] | 105.399% |
| Cc1ccc(CSc2cnc(C(C)(C)C)nc2)cc1 [CBK019832] | 103.702% |
| O=C(NCCSCc1c(F)cccc1Cl)Nc1cccc(Cl)c1 [CBK268574] | 98.2275% |
| O=C(Nc1cc(Cl)ccc1O)c1ccc(C(=O)Nc2cc(Cl)ccc2O)cc1 [CBK266784] | 109.78% |
| COc1cnc(C(=O)NCCc2ccc(S(=O)(=O)NC(=O)NC3CCCCC3)cc2)cn1 [CBK011761] | 125.829% |
| CC1(C)NC(=O)N(CC(O)CN(c2cc(Cl)ccc2Cl)S(=O)(=O)c2ccccc2)C1=O (stereo not drawn) [CBK033672] | 130.051% |
| Cn1cnc2cc(NC(=O)NCCN3CCCC(CO)C3)ccc21 (stereo not drawn) [CBK307582] | 119.644% |
| O=C(NCc1cccs1)C1(Cc2ccccc2-c2coc3ccccc23)CCOCC1 [CBK286310] | 107.549% |
| CC(NC(=O)C1CCN(Cc2ccccn2)CC1)c1cccc2ccccc12 (stereo not drawn) [CBK148662] | 77.4986% |
| CN(Cc1ccc(F)cc1F)C(=O)Cn1nc2n(c1=O)CCCCC2 [CBK304598] | 95.4449% |
| O=C(Nc1ccccc1N1CCNCC1)C1(c2ccccc2)CCCCC1 [CBK028281T] | 104.573% |
| CNc1nc2ccccc2n1CC(=O)c1ccccc1 [CBK262251B] | 95.498% |
| Cc1nn2c(O)c(CCO)c(C(=O)O)nc2c1-c1ccc(Cl)cc1 [CBK286699] | 96.8649% |
| Cc1ccc(C(=O)N2CCN(CC(=O)N3CCCC3)CC2)cc1 [CBK039096] | 111.175% |
| Cc1nc2ccccc2c(O)c1CN1CCN(C)CC1 [CBK027922] | 112.025% |
| c1cncc(-c2cncc(NCc3ccc4c(c3)OCO4)n2)c1 [CBK065313] | 179.466% |
| O=C(COc1ccc(S(=O)(=O)N2CCCCC2)cc1)N1CCN(Cc2ccccc2)CC1 [CBK269144] | 131.696% |
| N#Cc1c(Cl)cccc1Oc1ccc(S(=O)(=O)Nc2cccc(C(=O)O)c2)cc1 [CBK155718] | 105.985% |

Molecules from the list above that have a furan ring, fused or not, in the order listed:

| Compound | % of control remaining |
| --- | --- |
| COc1ccccc1CC(=O)NNC(=O)c1ccco1 [CBK262956] | 100% |
| O=C(NCc1cccs1)C1(Cc2ccccc2-c2coc3ccccc23)CCOCC1 [CBK286310] | 107.549% |

Additional entries

| Compound | % of control remaining |
| --- | --- |
| O=C(Cn1ccc2ccnc(-c3cccs3)c21)NCc1ccccn1 [CBK284735] | 123.932% |
| CN(Cc1ccccc1)C(=O)CCNS(=O)(=O)c1ccccc1 [CBK268585] | 110.048% |
| O=C(Nc1cncc(N2CCNCC2)n1)c1coc2c1C(=O)CCC2 [CBK004229T] | 136.228% |
| Cn1cnnc1Sc1cc(N2CCN(S(=O)(=O)c3ccc(Cl)c(Cl)c3)CC2)ccc1[N+](=O)[O-] [CBK266618] | 128.858% |
| O=C(O)c1ccc(C2(c3ccc(C(=O)O)cc3)OC(=O)c3ccccc32)cc1 [CBK261150] | 107.31% |
| O=C1N(Cc2ccc(Br)cc2)CCc2cncn21 [CBK021187] | 146.771% |
| Cc1cn2cccc(C(=O)N3CCCCC3CCN3CCOCC3)c2n1 (stereo not drawn) [CBK306518] | 158.149% |
| CCc1ccc(OCC(=O)Nc2cccnc2)cc1 [CBK264658] | 123.561% |
| O=C(CNC(=O)C1CCCCC1)NNC(=O)c1sc2ccccc2c1Cl [CBK267903] | 136.242% |
| Cc1noc(C)c1C(=O)N1CC[C@H]2NC(=O)c3ccccc3OCC/C=C/C[C@H]2C1 [CBK291994] | 109.383% |
| Cc1nc(CNC(=O)NC2CCCN(c3ccn(C)n3)C2=O)c(C)s1 (stereo not drawn) [CBK305926] | 117.794% |
| Cc1ccc2nc(Cl)c(/C=N/NC(=O)CN3CCOCC3)cc2c1 [CBK262731] | 76.2409% |
| COc1cccc2c1OC(c1cccnc1)N1N=C(c3cccc(O)c3)CC21 (stereo not drawn) [CBK287747] | 97.2222% |
| Cn1c(=O)n(C)c2cc(S(=O)(=O)ON3C(=O)c4cccc5cc([N+](=O)[O-])cc(c45)C3=O)ccc21 [CBK267566] | 122.583% |
| Cc1ccc(CNC(=O)Cn2nnc(-c3ccc(CN4CCC(S(C)(=O)=O)C4)cc3)n2)cc1 (stereo not drawn) [CBK155407T] | 99.1001% |
| CCOC(=O)c1c(NC(=O)c2nc3ncccn3n2)sc(C)c1C [CBK267630] | 118.121% |
| CN(C)CCN(C)c1cccc(-c2cccc(OC(F)(F)F)c2)n1 [CBK037020] | 181.244% |
| O=C(CN1CCN(c2ccc(C(F)(F)F)cn2)CC1)c1ccccc1 [CBK074699] | 63.2044% |
| COc1ccc(CNC(=O)CSc2nnc(-c3ccncc3)n2C)cc1 [CBK266613] | 151.022% |
| O=C(CC1CCCC1)N1CCC(c2cc(CCOc3cccc(C(F)(F)F)c3)[nH]n2)C1 (stereo not drawn) [CBK286267] | 94.1855% |
| O=C(Nc1ccc(Cl)c(S(=O)(=O)N2CCCC2)c1)c1cnccn1 [CBK295176] | 145.088% |
| COCCn1c(SCc2cn3c(C)cccc3n2)nc(C)c1C [CBK304050] | 107.794% |
| N=C(N/N=C\c1ccncc1)N/N=C\c1ccncc1 [CBK263278C] | 108.132% |
| O=C(O)c1cc(NS(=O)(=O)c2ccc(N3CCCCC3)c([N+](=O)[O-])c2)cc(C(=O)O)c1 [CBK263876] | 77.2178% |
| O=S(=O)(N1CCOCC1)N1CCN(CC(O)COc2ccc3cc(Br)ccc3c2)CC1 (stereo not drawn) [CBK268840] | 88.0325% |
| Nc1nonc1-n1nnc(C(=O)N/N=C/c2nc3ccccc3[nH]2)c1-c1ccccc1 [CBK262815] | 126.875% |

Reprinted at random: three compounds from above, in no set order.

| Compound | % of control remaining |
| --- | --- |
| Nc1nonc1-n1nnc(C(=O)N/N=C/c2nc3ccccc3[nH]2)c1-c1ccccc1 [CBK262815] | 126.875% |
| O=C(Nc1ccc(Cl)c(S(=O)(=O)N2CCCC2)c1)c1cnccn1 [CBK295176] | 145.088% |
| N=C(N/N=C\c1ccncc1)N/N=C\c1ccncc1 [CBK263278C] | 108.132% |

The listing continues:

| Compound | % of control remaining |
| --- | --- |
| CC12CCCN1CCCN2C(=O)c1c[nH]c2ccccc12 (stereo not drawn) [CBK169228] | 105.012% |
| Cc1ccc(C(=O)NC2CCCCC2)c(N2CCOCC2)n1 [CBK076388] | 138.559% |
| Cc1ccc(C2(O)CC3CCC(C2)N3C(=O)c2ccncc2)cc1 (stereo not drawn) [CBK284609] | 137.711% |
| O=C(Cc1coc2ccc3ccccc3c12)NNC(=O)c1ccccc1[N+](=O)[O-] [CBK268763] | 141.376% |
| CSc1ncc(C(=O)N2CCC(N3CCCC(CO)C3)CC2)c(=O)[nH]1 (stereo not drawn) [CBK307338] | 148.514% |
| CC(=O)Nc1c(O)nc(SCC(=O)Nc2ccccc2C(N)=O)[nH]c1=O [CBK268031] | 104.17% |
| OC(c1ccc2c(c1)OCO2)C1CCCCC1N1CCCCCC1 (stereo not drawn) [CBK022779C] | 183.173% |
| CCCc1cc(C(=O)N2CCc3sccc3C2C)[nH]n1 (stereo not drawn) [CBK283072] | 109.17% |
| OC(CNCc1ccc2c(c1)OCO2)COc1ccc(Cl)c(Cl)c1 (stereo not drawn) [CBK074649] | 121.022% |
| Cc1nn(C)cc1CN(C)CC(=O)Nc1nc2c(s1)CC(C)CC2 (stereo not drawn) [CBK306669] | 129.092% |
| NC(=O)C1CCN(C(=O)CSc2nc3ccccc3s2)CC1 [CBK293953] | 133.008% |
| O=C(Cn1cc(C(=O)Nc2ccc(F)cc2)ccc1=O)Nc1nc2c(s1)CCCCC2 [CBK286080] | 102.541% |
| COc1cccc(C(=O)c2snc(Nc3ccc(F)cc3)c2N)c1 [CBK269173] | 126.091% |
| Cc1noc(C)c1CC(=O)NCc1cccc(C#N)c1 [CBK305822] | 97.8949% |
| Cn1nc(C2CCN(C(=O)c3cccs3)CC2)c2cccnc21 [CBK284925] | 102.99% |
| O=C(CN1CCOCC1)N1CCC(F)CC1 [CBK200383] | 113.831% |
| Cc1cc(C)c(NC(=O)CSc2nc(C)c(Cc3ccccc3Cl)c(O)n2)c([N+](=O)[O-])c1 [CBK268693] | 148.02% |
| O=C(c1c[nH]c2ccccc12)C(F)(F)C(F)(F)F [CBK007222] | 126.783% |
| CS(=O)(=O)N1CC2(CCN(CCOCc3ccccc3)CC2)c2ccccc21 [CBK115458T] | 141.254% |
| CC(C)N(Cc1nc(-c2ccccc2)no1)C(=O)CCc1ccccc1 [CBK269867] | 75.1658% |
| O=C(CCS(=O)(=O)c1ccccc1)Nc1ccc(N2CCNCC2)c2ccccc12 [CBK028408T] | 97.7307% |
| Cc1cc(C(=O)N2CC[C@H]3NC(=O)c4ccccc4OCCCCC[C@H]3C2)no1 [CBK292005] | 145.996% |
| Cc1ccc(S(=O)(=O)Nc2ccccn2)c(C)c1C [CBK264995] | 126.04% |
| Cc1nc2c(OCCN3C(=O)c4ccccc4C3=O)cccn2c1N(C)C(=O)C1CCCCC1 [CBK147157] | 103.81% |
| N=c1c2c(-c3ccccc3)c(-c3ccccc3)oc2ncn1CCCN1CCOCC1 [CBK268484] | 122.515% |
| O=C1CCCN1C(=O)CN1CCOCC1 [CBK261467] | 84.6636% |
